Laboratory results taken from PMC3958307.
Results are given in words; binding and its absence hold for the method and conditions named. Binding seen in cells or lysates may run through a third protein. Some binding calls cover weakened binding; strength is not graded here.

The chains behind the UniProt entries cited, without tags or fusion partners.
UniProt Q02248: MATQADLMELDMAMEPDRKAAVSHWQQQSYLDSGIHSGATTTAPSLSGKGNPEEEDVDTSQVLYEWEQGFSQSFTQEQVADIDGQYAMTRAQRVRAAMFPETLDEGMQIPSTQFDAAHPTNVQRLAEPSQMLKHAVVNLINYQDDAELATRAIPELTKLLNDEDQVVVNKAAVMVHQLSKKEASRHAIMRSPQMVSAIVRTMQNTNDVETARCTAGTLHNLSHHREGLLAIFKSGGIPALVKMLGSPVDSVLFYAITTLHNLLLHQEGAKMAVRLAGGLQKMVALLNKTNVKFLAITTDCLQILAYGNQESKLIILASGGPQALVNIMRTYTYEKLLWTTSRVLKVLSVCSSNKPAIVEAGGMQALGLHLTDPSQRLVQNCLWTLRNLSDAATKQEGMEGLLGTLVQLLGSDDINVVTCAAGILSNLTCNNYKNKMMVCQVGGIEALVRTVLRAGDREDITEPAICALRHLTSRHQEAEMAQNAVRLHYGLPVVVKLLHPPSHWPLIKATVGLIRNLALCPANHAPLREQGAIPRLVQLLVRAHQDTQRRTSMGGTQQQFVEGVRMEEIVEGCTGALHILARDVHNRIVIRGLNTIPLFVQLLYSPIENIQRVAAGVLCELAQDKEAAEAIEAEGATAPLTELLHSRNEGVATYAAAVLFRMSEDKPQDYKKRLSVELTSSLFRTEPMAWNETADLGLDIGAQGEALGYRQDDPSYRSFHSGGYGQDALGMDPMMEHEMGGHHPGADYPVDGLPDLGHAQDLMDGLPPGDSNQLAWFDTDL
UniProt Q3TKT4: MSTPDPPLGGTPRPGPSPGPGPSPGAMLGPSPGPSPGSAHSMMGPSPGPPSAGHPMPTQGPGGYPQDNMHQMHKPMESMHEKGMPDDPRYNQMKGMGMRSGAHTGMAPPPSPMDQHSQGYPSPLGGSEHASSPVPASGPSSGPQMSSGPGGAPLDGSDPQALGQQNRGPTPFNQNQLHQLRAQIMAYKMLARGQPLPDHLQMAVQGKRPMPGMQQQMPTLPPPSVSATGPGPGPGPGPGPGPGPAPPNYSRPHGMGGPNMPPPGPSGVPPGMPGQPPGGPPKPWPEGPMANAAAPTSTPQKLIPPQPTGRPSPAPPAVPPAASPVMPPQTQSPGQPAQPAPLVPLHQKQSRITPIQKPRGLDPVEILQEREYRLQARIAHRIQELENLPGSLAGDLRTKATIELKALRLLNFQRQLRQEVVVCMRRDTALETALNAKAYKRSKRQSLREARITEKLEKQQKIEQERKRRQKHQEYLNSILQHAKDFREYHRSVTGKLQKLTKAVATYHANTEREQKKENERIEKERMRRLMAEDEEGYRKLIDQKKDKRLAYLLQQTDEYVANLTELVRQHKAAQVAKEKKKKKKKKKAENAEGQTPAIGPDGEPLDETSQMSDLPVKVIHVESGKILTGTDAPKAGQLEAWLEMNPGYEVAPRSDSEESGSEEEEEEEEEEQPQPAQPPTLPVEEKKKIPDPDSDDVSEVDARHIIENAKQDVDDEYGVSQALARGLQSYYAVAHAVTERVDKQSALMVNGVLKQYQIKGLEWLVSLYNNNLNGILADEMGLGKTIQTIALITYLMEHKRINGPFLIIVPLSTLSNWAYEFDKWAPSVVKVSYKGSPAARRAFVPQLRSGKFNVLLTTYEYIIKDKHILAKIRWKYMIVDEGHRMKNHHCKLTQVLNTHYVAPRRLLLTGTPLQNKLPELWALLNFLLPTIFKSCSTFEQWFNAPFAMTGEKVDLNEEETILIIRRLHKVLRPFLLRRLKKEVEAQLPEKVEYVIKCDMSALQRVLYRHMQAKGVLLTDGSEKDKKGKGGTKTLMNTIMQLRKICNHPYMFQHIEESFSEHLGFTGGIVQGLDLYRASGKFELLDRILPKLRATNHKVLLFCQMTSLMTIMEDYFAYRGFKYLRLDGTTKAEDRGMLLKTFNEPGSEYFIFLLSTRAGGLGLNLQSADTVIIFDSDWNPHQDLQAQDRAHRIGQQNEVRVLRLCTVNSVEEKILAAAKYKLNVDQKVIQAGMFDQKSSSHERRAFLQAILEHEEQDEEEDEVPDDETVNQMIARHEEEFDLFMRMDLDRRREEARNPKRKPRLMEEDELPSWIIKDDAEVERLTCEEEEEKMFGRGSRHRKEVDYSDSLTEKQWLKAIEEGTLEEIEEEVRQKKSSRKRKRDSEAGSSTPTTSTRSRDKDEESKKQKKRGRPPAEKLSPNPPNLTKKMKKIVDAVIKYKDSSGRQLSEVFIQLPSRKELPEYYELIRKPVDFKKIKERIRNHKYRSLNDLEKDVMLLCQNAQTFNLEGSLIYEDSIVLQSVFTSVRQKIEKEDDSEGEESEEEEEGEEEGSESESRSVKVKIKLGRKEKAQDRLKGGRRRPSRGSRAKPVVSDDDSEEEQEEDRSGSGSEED

What was measured:
[1] = molecular target: T1, Telomerase reverse transcriptase (mouse (endogenous in BMMSCs)) (UniProt O70372); assay: co-IP; nuclear proteins extracted from mouse BMMSCs (WT and TERT-/-), immunoprecipitated with TERT or β-catenin polyclonal antibodies, captured complexes analysed by Western blotting
T1 sequence: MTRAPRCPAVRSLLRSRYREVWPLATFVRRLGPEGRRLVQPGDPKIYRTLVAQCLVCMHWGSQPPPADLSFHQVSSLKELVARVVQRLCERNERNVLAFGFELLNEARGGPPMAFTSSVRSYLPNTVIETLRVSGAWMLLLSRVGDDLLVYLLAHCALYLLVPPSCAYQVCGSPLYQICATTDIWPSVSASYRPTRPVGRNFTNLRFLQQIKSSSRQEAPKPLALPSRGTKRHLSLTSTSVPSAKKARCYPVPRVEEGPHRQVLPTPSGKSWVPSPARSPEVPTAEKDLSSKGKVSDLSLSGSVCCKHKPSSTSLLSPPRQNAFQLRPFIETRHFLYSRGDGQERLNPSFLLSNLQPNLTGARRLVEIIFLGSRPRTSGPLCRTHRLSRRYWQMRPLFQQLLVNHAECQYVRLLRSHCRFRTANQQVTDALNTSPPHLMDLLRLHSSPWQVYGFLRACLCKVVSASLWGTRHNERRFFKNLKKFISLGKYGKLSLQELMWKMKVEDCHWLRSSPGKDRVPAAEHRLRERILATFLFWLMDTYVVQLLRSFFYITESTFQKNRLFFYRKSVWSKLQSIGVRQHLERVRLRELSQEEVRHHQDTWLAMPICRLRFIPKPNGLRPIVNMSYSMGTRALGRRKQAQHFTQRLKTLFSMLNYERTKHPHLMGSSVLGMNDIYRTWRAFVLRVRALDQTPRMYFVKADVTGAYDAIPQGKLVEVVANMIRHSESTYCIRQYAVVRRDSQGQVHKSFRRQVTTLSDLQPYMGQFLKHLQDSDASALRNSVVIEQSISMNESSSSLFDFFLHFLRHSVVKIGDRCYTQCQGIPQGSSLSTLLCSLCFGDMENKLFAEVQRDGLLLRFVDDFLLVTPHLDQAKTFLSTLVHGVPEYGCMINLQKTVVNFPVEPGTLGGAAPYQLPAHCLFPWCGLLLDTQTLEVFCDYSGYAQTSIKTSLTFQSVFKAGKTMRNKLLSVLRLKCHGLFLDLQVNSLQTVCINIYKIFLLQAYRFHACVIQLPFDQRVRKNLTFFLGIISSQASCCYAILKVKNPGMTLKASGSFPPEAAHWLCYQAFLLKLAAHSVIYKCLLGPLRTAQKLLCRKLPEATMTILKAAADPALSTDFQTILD

[2] = molecular target: β-catenin (mouse (endogenous in BMMSCs)) (UniProt Q02248); assay: as above

binding [1]	binding [2]	Substance
binds	–	β-catenin (from UniProt Q02248 1-781)
binds	binds	BRG1 (from UniProt Q3TKT4 1-1613)
